# Measurements reported in PubChem BioAssay AID602196 (INSERM, 2012).
# Purpose: 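Modifiers of cisplatin sensitivity in A549 cells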
# System: human A549 lung cancer cells
# Knock-down reagent: siRNA pair against human genes
# Time to read-out: 48 h transfection before cisplatin; time from cisplatin to read-out not stated
# Challenge: cisplatin at a dose killing half of control-siRNA cells; exact dose and duration not given
# Measured: 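Shift in cisplatin death relative to control siRNA, from -50 (all cells die) to +50 (no cells die); siRNAs harmful on their own scored 0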
# Scale: two-siRNA summed score (-2 to +2): higher = both siRNAs protect from cisplatin killing; -2 means both sensitise; mean protection from cisplatin (shift in death) and protection from cisplatin (shift in death), siRNA C and protection from cisplatin (shift in death), siRNA D: higher = protection from cisplatin killing
# Active means: 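siRNAs harmful alone (LDH or WST-1) get 0; others get +1 for less and -1 for more cisplatin killing; genes are active when the two siRNAs give the same sign, summing to ±2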
# Meaning of the calls: active = both siRNAs shift cisplatin killing the same way; inactive = no consistent shift, or siRNA harmful alone
# The whole screen tested about 23,000 reagents; this is a part drawn at random. In the full data, 455 (2%) are marked active. 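Active includes both protection and sensitisation; some change values fall well beyond the stated -50 to +50 range.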 A number with no mark means an inactive call. Reagents against one gene are numbered here. Not given: the amount of reagent.
two-siRNA summed score (-2 to +2),mean protection from cisplatin (shift in death) (%),"protection from cisplatin (shift in death), siRNA C (%)","protection from cisplatin (shift in death), siRNA D (%)",gene symbol,reagent no.
0,14.3,20.9,7.7,RBMXL1 (GeneID 494115),1
0,-2.5,6.6,-11.5,CCDC127 (GeneID 133957),1
1,13.5,16.2,10.9,LOC440433,1
0,-9,-19.1,1,ARHGAP20 (GeneID 57569),1
0,8.3,8.9,7.7,MCAT (GeneID 27349),1
-1,-5.2,4.3,-14.7,IGF2 (GeneID 3481),1
0,10.8,3.3,18.2,IGF2 (GeneID 3481),2
1,11.3,-12.1,34.6,HLA-DPA1 (GeneID 3113),1
0,1.3,7.2,-4.6,LOC401703 (GeneID 401703),1
-1,-6.7,0.5,-13.8,DACT1 (GeneID 51339),1
0,5.4,-0.9,11.6,THBS4 (GeneID 7060),1
1,26.5,21.9,31.1,LOC149224,1
0,3.7,15.6,-8.3,TLE5 (GeneID 166),1
0,-0.8,3.8,-5.4,LOC392531,1
0,3.6,4.4,2.8,ETV4 (GeneID 2118),1
-1,-23.3,-32.1,-14.6,KLF13 (GeneID 51621),1
0,7.6,-18.4,33.5,UGT2B28 (GeneID 54490),1
0,1.6,2.1,1.2,DCUN1D1 (GeneID 54165),1
0,-6.2,-1,-11.4,TRIM49 (GeneID 57093),1
-1,-12.9,-5.1,-20.7,RBBP5 (GeneID 5929),1
0,4.8,1.4,8.2,LOC440974,1
1,5.7,-3.1,14.5,LOC391609,1
0,-8.1,-18.7,2.4,WRN (GeneID 7486),1
-1,-8.3,2.4,-19.1,AGPS (GeneID 8540),1
0,1.3,13.9,-11.3,EDN2 (GeneID 1907),1
0,13.9,8.7,19,IDH3B (GeneID 3420),1
0,9.7,5.3,14,SULF2 (GeneID 55959),1
-1,-2.2,-18.8,14.4,HES6 (GeneID 55502),1
-1,0.4,11.4,-10.7,FBXL18 (GeneID 80028),1
0,3.1,3.8,2.5,CCDC51 (GeneID 79714),1
0,3.4,9,-2.1,AGTR2 (GeneID 186),1
0,2,11,-7,ITIH4 (GeneID 3700),1
0,0.5,9.3,-8.3,KCND3 (GeneID 3752),1
-1,-9.8,7.6,-27.2,TOMM40L (GeneID 84134),1
1,3.4,-7,13.8,GLUL (GeneID 2752),1
0,10.1,15.9,4.2,DDX49 (GeneID 54555),1
0,-1.6,-0.8,-2.4,ZNF892 (GeneID 344065),1
-1,-3.6,-17.4,10.2,SGCD (GeneID 6444),1
0,11.8,12.7,10.9,LOC440242,1

Not a retest: entries from further up.
two-siRNA summed score (-2 to +2),mean protection from cisplatin (shift in death) (%),"protection from cisplatin (shift in death), siRNA C (%)","protection from cisplatin (shift in death), siRNA D (%)",gene symbol,reagent no.
-1,-12.9,-5.1,-20.7,RBBP5 (GeneID 5929),1
0,4.8,1.4,8.2,LOC440974,1
1,5.7,-3.1,14.5,LOC391609,1
0,-8.1,-18.7,2.4,WRN (GeneID 7486),1
-1,-8.3,2.4,-19.1,AGPS (GeneID 8540),1
0,1.3,13.9,-11.3,EDN2 (GeneID 1907),1
0,13.9,8.7,19,IDH3B (GeneID 3420),1

Continued:
two-siRNA summed score (-2 to +2),mean protection from cisplatin (shift in death) (%),"protection from cisplatin (shift in death), siRNA C (%)","protection from cisplatin (shift in death), siRNA D (%)",gene symbol,reagent no.
0,-7.3,-17.1,2.5,ACSL1 (GeneID 2180),1
0,3.2,-3.1,9.4,KIFC1 (GeneID 3833),1
0,6.6,5,8.2,IFIT5 (GeneID 24138),1
0,-16.1,-21.3,-10.8,IPO5 (GeneID 3843),1
0,11.2,11.7,10.6,RSU1 (GeneID 6251),1
0,9.6,8.9,10.3,PCDH9 (GeneID 5101),1
0,-16.5,-17.8,-15.2,KALRN (GeneID 8997),1
1,14.3,19.8,8.8,KALRN (GeneID 8997),2
-1,-14.2,-30.9,2.5,HKDC1 (GeneID 80201),1
0,1,-4.6,6.5,MANEA (GeneID 79694),1
0,6.7,13.2,0.3,WARS1P1 (GeneID 341112),1
0,-5.2,-4.6,-5.8,RORA (GeneID 6095),1
0,1,-4.9,7,LCOR (GeneID 84458),1
0,6.6,2.3,11,LCOR (GeneID 84458),2
1,8,-3.1,19,DST (GeneID 667),1
0,14.4,8.6,20.3,C6orf163 (GeneID 206412),1
0,5,11.2,-1.1,PPIAP55 (GeneID 342541),1
0,-9.2,-19.1,0.7,GALNT10 (GeneID 55568),1
0,8.3,4.5,12.2,LOC442047,1
0,7.6,0.7,14.5,LOC388655,1
0,5,-3.5,13.5,DCDC1 (GeneID 341019),1
1,20,16.2,23.8,DCDC1 (GeneID 341019),2
1,22,55.4,-11.4,FBXO42 (GeneID 54455),1
1,-2.1,17.8,-22,LOC285643,1
0,10.1,9.5,10.6,HINFP (GeneID 25988),1
0,6.2,12.4,-0.1,HSPA8P6 (GeneID 130195),1
-1,-17.6,-31.5,-3.7,AKR7A3 (GeneID 22977),1
0,1.5,2.4,0.5,TNFRSF11A (GeneID 8792),1
0,5.9,14.4,-2.6,HSPB3 (GeneID 8988),1
1,20.6,33.4,7.7,GPATCH2L (GeneID 55668),1
0,6.5,-7.2,20.2,PFKFB1 (GeneID 5207),1
0,-3.3,5.5,-12,AZIN1 (GeneID 51582),1
-1,-14.6,-7.1,-22,CCL17 (GeneID 6361),1
0,17,24.8,9.1,SLC43A3 (GeneID 29015),1
